Data as given in article PMC8660890.
No constants are given. Whether binding was seen depends on the method and setting. Binding seen in cells or lysates may run through a third protein. Some results given as binding are weak or reduced against the parent protein; the word gives no strength.

Amino acid sequences for entries named in this document (tags omitted). Residues count along the entry.
UniProt Q99102, residues 29-5412: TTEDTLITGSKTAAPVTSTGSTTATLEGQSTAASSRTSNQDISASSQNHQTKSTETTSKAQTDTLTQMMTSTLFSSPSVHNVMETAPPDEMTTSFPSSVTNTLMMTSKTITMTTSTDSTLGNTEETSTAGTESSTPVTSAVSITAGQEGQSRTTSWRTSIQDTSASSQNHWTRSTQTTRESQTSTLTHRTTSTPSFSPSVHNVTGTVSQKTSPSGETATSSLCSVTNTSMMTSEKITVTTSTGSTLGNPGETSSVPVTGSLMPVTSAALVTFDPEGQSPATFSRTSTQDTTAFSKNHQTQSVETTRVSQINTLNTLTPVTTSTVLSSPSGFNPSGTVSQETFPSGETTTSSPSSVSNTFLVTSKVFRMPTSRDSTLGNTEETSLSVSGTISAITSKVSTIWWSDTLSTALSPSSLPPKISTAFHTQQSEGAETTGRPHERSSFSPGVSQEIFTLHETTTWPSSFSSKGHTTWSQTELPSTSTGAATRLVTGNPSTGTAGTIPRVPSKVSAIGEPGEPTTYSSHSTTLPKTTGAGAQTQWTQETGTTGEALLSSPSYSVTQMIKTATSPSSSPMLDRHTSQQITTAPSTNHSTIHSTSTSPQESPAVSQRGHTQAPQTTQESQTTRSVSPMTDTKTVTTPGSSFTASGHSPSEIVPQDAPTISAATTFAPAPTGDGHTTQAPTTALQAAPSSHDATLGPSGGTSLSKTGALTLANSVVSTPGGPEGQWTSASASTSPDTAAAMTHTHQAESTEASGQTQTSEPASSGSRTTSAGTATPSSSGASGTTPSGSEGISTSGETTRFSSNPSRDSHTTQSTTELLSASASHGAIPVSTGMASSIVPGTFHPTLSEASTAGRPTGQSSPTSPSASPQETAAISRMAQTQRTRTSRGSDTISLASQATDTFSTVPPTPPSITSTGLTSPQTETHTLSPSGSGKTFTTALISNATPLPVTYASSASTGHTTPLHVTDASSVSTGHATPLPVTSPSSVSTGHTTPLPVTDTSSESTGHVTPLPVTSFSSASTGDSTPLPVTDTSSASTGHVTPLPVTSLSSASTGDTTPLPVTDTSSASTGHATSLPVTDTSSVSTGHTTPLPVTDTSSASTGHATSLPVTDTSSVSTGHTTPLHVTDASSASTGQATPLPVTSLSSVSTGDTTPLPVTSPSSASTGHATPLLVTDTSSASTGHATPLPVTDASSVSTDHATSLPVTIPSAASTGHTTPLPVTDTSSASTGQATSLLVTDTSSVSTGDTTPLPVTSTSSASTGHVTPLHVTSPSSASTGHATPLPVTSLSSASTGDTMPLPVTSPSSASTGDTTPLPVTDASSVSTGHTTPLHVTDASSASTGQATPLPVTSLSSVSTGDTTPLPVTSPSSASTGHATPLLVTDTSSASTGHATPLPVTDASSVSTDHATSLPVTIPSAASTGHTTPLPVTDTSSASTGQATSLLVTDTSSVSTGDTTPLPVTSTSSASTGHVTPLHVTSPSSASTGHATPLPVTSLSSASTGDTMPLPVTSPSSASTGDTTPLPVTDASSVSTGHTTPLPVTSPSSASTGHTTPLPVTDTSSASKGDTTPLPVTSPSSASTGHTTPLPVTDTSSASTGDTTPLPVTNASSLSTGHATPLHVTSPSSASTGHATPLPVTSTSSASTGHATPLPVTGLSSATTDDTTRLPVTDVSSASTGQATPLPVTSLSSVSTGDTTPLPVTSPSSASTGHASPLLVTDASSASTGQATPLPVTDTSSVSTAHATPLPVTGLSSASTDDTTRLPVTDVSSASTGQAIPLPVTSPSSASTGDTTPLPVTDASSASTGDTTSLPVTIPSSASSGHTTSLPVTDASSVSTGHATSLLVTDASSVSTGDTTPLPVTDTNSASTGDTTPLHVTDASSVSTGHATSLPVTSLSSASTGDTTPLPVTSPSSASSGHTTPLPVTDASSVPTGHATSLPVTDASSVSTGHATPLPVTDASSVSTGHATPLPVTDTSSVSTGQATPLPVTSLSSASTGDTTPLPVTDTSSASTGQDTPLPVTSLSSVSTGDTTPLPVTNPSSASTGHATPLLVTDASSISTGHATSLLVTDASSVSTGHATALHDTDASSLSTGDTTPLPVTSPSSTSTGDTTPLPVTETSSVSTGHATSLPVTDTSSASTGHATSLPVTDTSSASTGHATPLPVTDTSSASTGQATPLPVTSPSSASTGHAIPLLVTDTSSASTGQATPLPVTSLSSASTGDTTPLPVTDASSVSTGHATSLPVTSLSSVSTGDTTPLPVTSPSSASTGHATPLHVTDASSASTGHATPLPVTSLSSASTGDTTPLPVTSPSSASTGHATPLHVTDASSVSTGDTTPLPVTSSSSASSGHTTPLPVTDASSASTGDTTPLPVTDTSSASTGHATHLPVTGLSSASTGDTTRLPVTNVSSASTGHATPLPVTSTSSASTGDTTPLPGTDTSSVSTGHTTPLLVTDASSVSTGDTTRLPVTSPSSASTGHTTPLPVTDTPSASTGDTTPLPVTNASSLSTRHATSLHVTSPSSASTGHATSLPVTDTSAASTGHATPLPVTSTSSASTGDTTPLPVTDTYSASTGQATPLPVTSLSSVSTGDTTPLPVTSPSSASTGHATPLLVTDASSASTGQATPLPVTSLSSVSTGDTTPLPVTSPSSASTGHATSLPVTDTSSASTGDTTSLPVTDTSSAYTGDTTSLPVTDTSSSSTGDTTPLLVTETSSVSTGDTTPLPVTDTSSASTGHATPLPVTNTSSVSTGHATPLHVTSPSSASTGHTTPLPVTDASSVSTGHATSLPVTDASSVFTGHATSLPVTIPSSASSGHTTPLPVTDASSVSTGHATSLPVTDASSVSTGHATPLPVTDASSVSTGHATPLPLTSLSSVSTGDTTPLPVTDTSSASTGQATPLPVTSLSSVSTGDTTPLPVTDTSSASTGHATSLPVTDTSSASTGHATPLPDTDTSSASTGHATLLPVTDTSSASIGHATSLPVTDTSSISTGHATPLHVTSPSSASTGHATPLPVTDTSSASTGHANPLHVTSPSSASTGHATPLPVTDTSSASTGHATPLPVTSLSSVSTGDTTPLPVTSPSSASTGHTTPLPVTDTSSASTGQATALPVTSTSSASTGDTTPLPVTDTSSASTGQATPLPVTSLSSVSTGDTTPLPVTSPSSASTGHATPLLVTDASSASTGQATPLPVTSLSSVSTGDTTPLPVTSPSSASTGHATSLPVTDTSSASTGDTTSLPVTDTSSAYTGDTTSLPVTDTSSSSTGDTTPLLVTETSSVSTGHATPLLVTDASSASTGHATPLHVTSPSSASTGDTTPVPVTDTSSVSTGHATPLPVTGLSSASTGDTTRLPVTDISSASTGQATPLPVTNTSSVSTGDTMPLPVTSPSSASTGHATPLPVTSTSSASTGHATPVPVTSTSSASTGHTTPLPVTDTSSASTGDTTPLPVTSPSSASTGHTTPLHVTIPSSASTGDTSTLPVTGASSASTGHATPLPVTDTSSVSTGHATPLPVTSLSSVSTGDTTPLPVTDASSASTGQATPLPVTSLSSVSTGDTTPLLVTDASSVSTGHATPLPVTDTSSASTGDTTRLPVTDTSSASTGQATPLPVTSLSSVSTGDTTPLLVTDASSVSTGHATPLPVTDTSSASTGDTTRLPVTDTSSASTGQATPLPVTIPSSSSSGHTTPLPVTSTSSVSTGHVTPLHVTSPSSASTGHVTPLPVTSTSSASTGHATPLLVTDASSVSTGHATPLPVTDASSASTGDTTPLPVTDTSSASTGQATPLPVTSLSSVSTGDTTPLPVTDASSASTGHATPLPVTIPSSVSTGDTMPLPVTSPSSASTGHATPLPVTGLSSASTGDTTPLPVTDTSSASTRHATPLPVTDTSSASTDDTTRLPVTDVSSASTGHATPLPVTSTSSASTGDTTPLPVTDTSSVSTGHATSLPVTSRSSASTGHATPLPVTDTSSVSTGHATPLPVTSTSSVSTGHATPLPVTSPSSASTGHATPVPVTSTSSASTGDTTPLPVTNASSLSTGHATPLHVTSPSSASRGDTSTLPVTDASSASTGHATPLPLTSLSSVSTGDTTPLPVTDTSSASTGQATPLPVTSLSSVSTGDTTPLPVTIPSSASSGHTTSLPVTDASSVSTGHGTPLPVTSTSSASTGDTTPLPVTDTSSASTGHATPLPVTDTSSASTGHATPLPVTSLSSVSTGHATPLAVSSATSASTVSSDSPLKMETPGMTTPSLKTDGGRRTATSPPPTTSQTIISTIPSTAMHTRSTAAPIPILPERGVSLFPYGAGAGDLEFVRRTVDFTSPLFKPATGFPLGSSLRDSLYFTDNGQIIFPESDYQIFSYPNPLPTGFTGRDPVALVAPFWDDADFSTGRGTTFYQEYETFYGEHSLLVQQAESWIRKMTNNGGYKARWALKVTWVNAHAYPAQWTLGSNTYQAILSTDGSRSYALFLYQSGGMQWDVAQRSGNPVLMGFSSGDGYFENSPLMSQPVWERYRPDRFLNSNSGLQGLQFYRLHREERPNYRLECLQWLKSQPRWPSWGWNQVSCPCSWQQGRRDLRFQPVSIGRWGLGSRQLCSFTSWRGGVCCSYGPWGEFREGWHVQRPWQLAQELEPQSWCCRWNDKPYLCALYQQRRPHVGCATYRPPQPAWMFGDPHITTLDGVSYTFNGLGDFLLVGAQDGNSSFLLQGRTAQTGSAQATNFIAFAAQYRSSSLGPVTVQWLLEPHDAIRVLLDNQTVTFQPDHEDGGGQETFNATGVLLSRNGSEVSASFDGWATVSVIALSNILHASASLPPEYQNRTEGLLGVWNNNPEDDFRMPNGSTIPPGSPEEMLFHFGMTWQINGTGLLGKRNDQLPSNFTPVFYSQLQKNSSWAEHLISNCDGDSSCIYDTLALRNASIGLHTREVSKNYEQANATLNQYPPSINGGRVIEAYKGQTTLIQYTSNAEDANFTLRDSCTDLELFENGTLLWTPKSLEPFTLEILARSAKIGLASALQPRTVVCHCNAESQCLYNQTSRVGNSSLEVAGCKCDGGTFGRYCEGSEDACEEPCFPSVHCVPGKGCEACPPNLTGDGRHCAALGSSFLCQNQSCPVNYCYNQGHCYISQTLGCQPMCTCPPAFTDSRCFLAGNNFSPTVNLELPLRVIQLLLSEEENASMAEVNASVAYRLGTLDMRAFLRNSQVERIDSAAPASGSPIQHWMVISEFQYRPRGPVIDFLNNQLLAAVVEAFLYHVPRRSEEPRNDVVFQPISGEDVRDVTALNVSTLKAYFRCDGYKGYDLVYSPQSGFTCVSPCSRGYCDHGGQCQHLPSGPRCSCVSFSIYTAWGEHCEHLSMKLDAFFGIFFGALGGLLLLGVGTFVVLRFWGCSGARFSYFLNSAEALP
UniProt P15311: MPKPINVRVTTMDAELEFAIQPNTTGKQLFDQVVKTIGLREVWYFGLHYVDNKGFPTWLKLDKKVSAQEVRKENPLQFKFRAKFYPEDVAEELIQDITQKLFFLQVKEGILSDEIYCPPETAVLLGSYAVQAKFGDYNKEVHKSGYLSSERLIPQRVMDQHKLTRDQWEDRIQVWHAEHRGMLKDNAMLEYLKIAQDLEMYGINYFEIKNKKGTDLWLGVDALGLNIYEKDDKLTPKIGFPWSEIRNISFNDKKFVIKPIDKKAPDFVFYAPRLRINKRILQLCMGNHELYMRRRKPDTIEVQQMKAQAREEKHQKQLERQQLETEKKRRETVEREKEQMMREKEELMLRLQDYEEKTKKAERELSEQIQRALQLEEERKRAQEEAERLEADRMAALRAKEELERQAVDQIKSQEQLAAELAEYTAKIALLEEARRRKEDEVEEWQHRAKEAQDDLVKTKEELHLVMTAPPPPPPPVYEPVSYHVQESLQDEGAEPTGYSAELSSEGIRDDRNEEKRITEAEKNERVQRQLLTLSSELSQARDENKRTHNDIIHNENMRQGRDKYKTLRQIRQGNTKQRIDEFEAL

Target: endogenous MUC4 (human (endogenous in CD18/HPAF)) (UniProt Q99102)
Experiment: co-IP; CD18/HPAF lysate, immunoprecipitation with anti-MUC4β mAb 6E8 and protein A/G agarose beads; immunoblot for Ezrin

binding: binds
Substance: Ezrin (from UniProt P15311 1-586)
